Results reported in PMC10415282, “High resolution cryo-EM and crystallographic snapshots of the actinobacterial two-in-one 2-oxoglutarate dehydrogenase” (Nature Communications, 2023).
These are yes or no findings as the source states them, for the method shown. Some binding calls cover weakened binding; strength is not graded here. Tags and fused reporters may be left off the sequences shown.

Biological target: T1, Mycobacterium smegmatis KGD, full-length (Mycobacterium smegmatis) (UniProt A0R2B1)
T1 sequence: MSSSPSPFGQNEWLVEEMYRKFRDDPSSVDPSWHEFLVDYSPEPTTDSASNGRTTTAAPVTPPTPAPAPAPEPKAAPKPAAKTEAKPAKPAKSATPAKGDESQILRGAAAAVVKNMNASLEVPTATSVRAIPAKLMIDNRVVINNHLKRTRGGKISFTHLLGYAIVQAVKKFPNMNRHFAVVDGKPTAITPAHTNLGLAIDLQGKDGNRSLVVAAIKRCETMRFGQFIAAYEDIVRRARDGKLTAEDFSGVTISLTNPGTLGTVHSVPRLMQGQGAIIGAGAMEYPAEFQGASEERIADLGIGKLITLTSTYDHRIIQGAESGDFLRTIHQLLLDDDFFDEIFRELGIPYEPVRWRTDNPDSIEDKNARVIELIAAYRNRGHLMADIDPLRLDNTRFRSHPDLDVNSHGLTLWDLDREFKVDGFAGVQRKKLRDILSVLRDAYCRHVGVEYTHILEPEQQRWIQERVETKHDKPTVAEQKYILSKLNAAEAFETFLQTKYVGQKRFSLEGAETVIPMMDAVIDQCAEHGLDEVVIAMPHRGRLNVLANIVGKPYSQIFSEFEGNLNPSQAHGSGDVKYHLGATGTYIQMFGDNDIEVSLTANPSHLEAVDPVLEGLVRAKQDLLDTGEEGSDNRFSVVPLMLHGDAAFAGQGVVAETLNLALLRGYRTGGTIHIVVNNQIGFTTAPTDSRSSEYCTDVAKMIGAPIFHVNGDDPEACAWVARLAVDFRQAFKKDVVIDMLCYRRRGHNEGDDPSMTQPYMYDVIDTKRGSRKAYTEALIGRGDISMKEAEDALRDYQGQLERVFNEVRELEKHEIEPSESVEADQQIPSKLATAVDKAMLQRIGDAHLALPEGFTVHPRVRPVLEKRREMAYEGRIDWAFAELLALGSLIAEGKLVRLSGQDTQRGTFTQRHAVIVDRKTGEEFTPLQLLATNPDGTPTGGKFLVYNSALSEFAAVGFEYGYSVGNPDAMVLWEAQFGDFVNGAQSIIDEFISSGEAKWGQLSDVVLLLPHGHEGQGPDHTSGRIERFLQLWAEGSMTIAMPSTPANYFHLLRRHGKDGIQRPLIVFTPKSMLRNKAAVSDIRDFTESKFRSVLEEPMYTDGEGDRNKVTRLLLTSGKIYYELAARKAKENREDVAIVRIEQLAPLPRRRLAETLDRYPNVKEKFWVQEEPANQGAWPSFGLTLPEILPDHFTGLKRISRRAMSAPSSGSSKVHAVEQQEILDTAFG
Assay: crystal structure; MsKGD (10 mg/ml, 2 mM ThDP, 5 mM MgCl2) co-crystallised with GarA at 1:1 molar ratio; 0.1 M bicine pH 8.0, 30% PEG550MME, 0.2 M NaCl; 4.6 Å; both purified

binding: binds
B1: Mycobacterium smegmatis GarA (protein, UniProt A0QYG2 1-158)
chain: MTDKDSNLGADQSEDVTVETTSVFRADFLNELDAPAAAGTEGAVSGVEGLPSGSALLVVKRGPNAGSRFLLDQPTTSAGRHPDSDIFLDDVTVSRRHAEFRLEGGEFQVVDVGSLNGTYVNREPVDSAVLANGDEVQIGKFRLVFLTGPKSDDSGSNA
